US20230146455A1 (Yuyu Pharma, Inc., priority 2020, published 2023)

What was measured:
Assay type in all cases: cell-based, human
IFN-gamma = test: Example 9 Luminex, LPS hPBMCs: IFN-gamma; settings: no LPS
Protocol: (§1) Treatment Human PBMCs were pretreated with YY-101, YDE-011 and YDE-043 or reference compound; Xiidra® at various concentration (ranging from 1 nM to 100 uM) for 2 h before stimulation. An equal volume of 0.5% DMSO was used as a vehicle control. Then, the cells were treated with LPS at 5 ug/ml. The supernatants from treated cells were harvested at 24 h and placed in a 96 well for Luminex cytokine & chemokine profiling using a Luminex 200 multiplex assay (Luminex; R&D system, USA).
(§2) The main study arm with triplicate wells per group in a 24-well plate: • 1. Blank • 2. PBMC: 0.5% DMSO • 3. PBMC+LPS (5 ug/ml) • 4. PBMC+YY-101 100 uM • 5. PBMC+YY-101 10 uM • 6. PBMC+YY-101 1 uM • 7. PBMC+YY-101 0.1 uM • 8. PBMC+YY-101 0.01 uM • 9. PBMC+LPS (5 ug/ml)+Xiidra®100 uM • 10. PBMC+LPS (5 ug/ml)+Xiidra® 10 uM • 11. PBMC+LPS (5 ug/ml)+Xiidra® 1 uM • 12. PBMC+LPS (5 ug/ml)+Xiidra®0.1 uM • 13. PBMC+LPS (5 ug/ml)+Xiidra®0.01 uM • 14. PBMC+LPS (5 ug/ml)+Xiidra®0.001 uM • 15. PBMC+LPS (5 ug/ml)+YY-101 100 uM • 16. PBMC+LPS (5 ug/ml)+YY-101 10 uM • 17. PBMC+LPS (5 ug/ml)+YY-101 1 uM • 18. PBMC+LPS (5 ug/ml)+YY-101 0.1 uM • 19. PBMC+LPS (5 ug/ml)+YY-101 0.01 uM • 20. PBMC+LPS (5 ug/ml)+YY-101 0.001 uM • 21. PBMC+LPS (5 ug/ml)+YDE-011 100 uM • 22. PBMC+LPS (5 ug/ml)+YDE-011 10 uM • 23. PBMC+LPS (5 ug/ml)+YDE-011 1 uM • 24. PBMC+LPS (5 ug/ml)+YDE-011 0.1 uM • 25. PBMC+LPS (5 ug/ml)+YDE-011 0.01 uM • 26. PBMC+LPS (5 ug/ml)+YDE-011 0.001 uM • 27. PBMC+LPS (5 ug/ml)+YDE-043 100 uM • 28. PBMC+LPS (5 ug/ml)+YDE-043 10 uM • 29. PBMC+LPS (5 ug/ml)+YDE-043 1 uM • 30. PBMC+LPS (5 ug/ml)+YDE-043 0.1 uM • 31. PBMC+LPS (5 ug/ml)+YDE-043 0.01 uM • 32. PBMC+LPS (5 ug/ml)+YDE-043 0.001 uM
(§3) Multiplex assay was used to measure 30 cytokines and chemokines. The 1:2, 1:10 and 1:200 diluted cell supernatant and serial dilution of the standard were dispensed into a 96 well plate at 50 ul/well. Then, the pre-mixed cocktail of antibody-coated magnetic beads was dispensed at 50 ul/well and incubated at room temperature for 2 h in a horizontal orbital microplate shaker at 800±500 rpm. The beads were washed using a magnetic device to prevent loss. The biotin-antibody was dispensed in 50 ul of each well and incubated at room temperature for 1 h in a shaker at 800±500 rpm. After washing, streptavidin-PE was added at 50 ul/well and incubated at room temperature for 30 min in a shaker under the same conditions. Finally, after washing, wash buffer (100 ul/well) was added to the plate and incubated in a shaker for 2 min. The Luminex™ 200 setting were set according to the manufacturer's protocol. The data was calculated with a standard five-parameter logistic nonlinear regression analysis of the data (xPonent software 4.2, USA). The levels of cytokine/chemokine are normalized to the live cell counts (1×10^5 cells/mL) and presented as concentrations per mL (pg/mL or ng/mL).

IL-1 alpha = test: Example 9 Luminex, LPS hPBMCs: IL-1 alpha; settings: Bead IL-1 alpha, replicates and Mean
Protocol: as §1, §2, §3

TNF-alpha = test: Example 9 Luminex, LPS hPBMCs: TNF-alpha
Protocol: as §1, §2, §3

How did the “MFI (Bead name: IFN-gamma)” value (IFN-gamma; PBMC + test article 1 uM, Mean) turn out when `CC(C)C[C@H](NC(=O)CNC(=O)[C@H](CC(=O)O)NC(=O)[C@H](CCC(N)=O)NC(=O)CNC(=O)[C@@H]1C[C@@H](O)CN1)C(=O)N[C@@H](C)C(=O)NCC(=O)N1CCC[C@H]1C(=O)N[C@@H](CCCCN)C(=O)O` [YY-101] (H-[Hyp]GQDGLAGPK-OH; N-terminus and C-terminus assumed) was run?
Its value is 6.0.

And the “MFI (Bead name: IFN-gamma)” value (IFN-gamma; PBMC + test article 1 uM, single replicates)?
Its value is 5.0 and 7.0.

What about the “MFI (Bead name: IFN-gamma)” value (IFN-gamma; PBMC + test article 10 uM, Mean) of the same compound?
Its value is 12.3.

And the “MFI (Bead name: IFN-gamma)” value (IFN-gamma; PBMC + test article 10 uM, single replicates)?
Its value is 15.5 and 9.0.

And the “MFI (Bead name: IFN-gamma)” value (IFN-gamma; PBMC + test article 100 uM, Mean)?
The value was 9.5.

And the “MFI (Bead name: IFN-gamma)” value (IFN-gamma; PBMC + test article 100 uM, single replicates)?
The value was 12.0 and 7.0.

What about the MFI (IL-1 alpha; PBMC + LPS(5 ug/ml) + YY101 0.001 uM) of the same compound?
Its MFI is 504.5 and 553.0 and 496.0 and 517.8.

What about the MFI (IL-1 alpha; PBMC + LPS(5 ug/ml) + YY101 0.01 uM) of the same compound?
Its MFI is 613.0 and 572.0 and 584.0 and 589.7.

And the MFI (IL-1 alpha; PBMC + LPS(5 ug/ml) + YY101 0.1 uM)?
Its MFI is 593.0 and 580.0 and 581.0 and 584.7.

What about the MFI (IL-1 alpha; PBMC + LPS(5 ug/ml) + YY101 1 uM) of the same compound?
Its MFI is 538.5 and 506.0 and 515.5 and 520.0.

What about the MFI (IL-1 alpha; PBMC + LPS(5 ug/ml) + YY101 10 uM) of the same compound?
Its MFI is 568.5 and 565.0 and 582.5 and 572.0.

And the MFI (IL-1 alpha; PBMC + LPS(5 ug/ml) + YY101 100 uM)?
The MFI was 816.0 and 762.0 and 759.0 and 779.0.

And the MFI (IL-1 alpha; PBMC + YY101 0.01 uM (second group so labelled), no LPS)?
The MFI was −1.0 and 1.0 and 0.0.

What about the MFI (IL-1 alpha; PBMC + YY101 0.01 uM, no LPS) of the same compound?
Its MFI is −1.0 and 1.0 and 0.0.

And the MFI (IL-1 alpha; PBMC + YY101 1 uM, no LPS)?
Its MFI is 1.0.

And the MFI (IL-1 alpha; PBMC + YY101 10 uM, no LPS)?
The MFI was 20.0 and 2.0 and 11.0.

And the MFI (IL-1 alpha; PBMC + YY101 100 uM, no LPS)?
The MFI was 4.0 and 1.0 and 2.5.

What about the “MFI, Bead name: TNF-alpha” value (TNF-alpha; PBMC + LPS(5 ug/ml) + test article 0.001 uM, Mean) of the same compound?
Its value is 820.5.

And the “MFI, Bead name: TNF-alpha” value (TNF-alpha; PBMC + LPS(5 ug/ml) + test article 0.001 uM, individual replicates (1st, 2nd, 3rd))?
The value was 854.5 and 878.0 and 729.0.

What about the “MFI, Bead name: TNF-alpha” value (TNF-alpha; PBMC + LPS(5 ug/ml) + test article 0.01 uM, Mean) of the same compound?
Its value is 922.8.

And the “MFI, Bead name: TNF-alpha” value (TNF-alpha; PBMC + LPS(5 ug/ml) + test article 0.01 uM, individual replicates (1st, 2nd, 3rd))?
The value was 946.5 and 935.0 and 887.0.

And the “MFI, Bead name: TNF-alpha” value (TNF-alpha; PBMC + LPS(5 ug/ml) + test article 0.1 uM, Mean)?
The value was 957.2.

What about the “MFI, Bead name: TNF-alpha” value (TNF-alpha; PBMC + LPS(5 ug/ml) + test article 0.1 uM, individual replicates (1st, 2nd, 3rd)) of the same compound?
Its value is 937.5 and 963.0 and 971.0.

What about the “MFI, Bead name: TNF-alpha” value (TNF-alpha; PBMC + LPS(5 ug/ml) + test article 1 uM, Mean) of the same compound?
Its value is 859.5.

What about the “MFI, Bead name: TNF-alpha” value (TNF-alpha; PBMC + LPS(5 ug/ml) + test article 1 uM, individual replicates (1st, 2nd, 3rd)) of the same compound?
The value was 920.0 and 844.5 and 814.0.

And the “MFI, Bead name: TNF-alpha” value (TNF-alpha; PBMC + LPS(5 ug/ml) + test article 10 uM, Mean)?
Its value is 922.8.

What about the “MFI, Bead name: TNF-alpha” value (TNF-alpha; PBMC + LPS(5 ug/ml) + test article 10 uM, individual replicates (1st, 2nd, 3rd)) of the same compound?
The value was 921.0 and 942.5 and 905.0.

And the “MFI, Bead name: TNF-alpha” value (TNF-alpha; PBMC + LPS(5 ug/ml) + test article 100 uM, Mean)?
The value was 823.8.

What about the “MFI, Bead name: TNF-alpha” value (TNF-alpha; PBMC + LPS(5 ug/ml) + test article 100 uM, individual replicates (1st, 2nd, 3rd)) of the same compound?
The value was 865.0 and 783.0 and 823.5.

What about the “MFI, Bead name: TNF-alpha” value (TNF-alpha; PBMC + test article 0.01 uM, no LPS, Mean) of the same compound?
Its value is 5.5.

And the “MFI, Bead name: TNF-alpha” value (TNF-alpha; PBMC + test article 0.01 uM, no LPS, individual replicates (1st, 2nd))?
The value was 5.0 and 6.0.

And the “MFI, Bead name: TNF-alpha” value (TNF-alpha; PBMC + test article 0.1 uM, no LPS, Mean)?
Its value is 6.0.

What about the “MFI, Bead name: TNF-alpha” value (TNF-alpha; PBMC + test article 0.1 uM, no LPS, individual replicates (1st, 2nd)) of the same compound?
Its value is 5.0 and 7.0.

What about the “MFI, Bead name: TNF-alpha” value (TNF-alpha; PBMC + test article 1 uM, no LPS, Mean) of the same compound?
Its value is 7.5.

And the “MFI, Bead name: TNF-alpha” value (TNF-alpha; PBMC + test article 1 uM, no LPS, individual replicates (1st, 2nd))?
Its value is 7.0 and 8.0.

And the “MFI, Bead name: TNF-alpha” value (TNF-alpha; PBMC + test article 10 uM, no LPS, Mean)?
Its value is 18.0.

And the “MFI, Bead name: TNF-alpha” value (TNF-alpha; PBMC + test article 10 uM, no LPS, individual replicates (1st, 2nd))?
Its value is 29.0 and 7.0.

What about the “MFI, Bead name: TNF-alpha” value (TNF-alpha; PBMC + test article 100 uM, no LPS, Mean) of the same compound?
Its value is 22.3.

What about the “MFI, Bead name: TNF-alpha” value (TNF-alpha; PBMC + test article 100 uM, no LPS, individual replicates (1st, 2nd)) of the same compound?
Its value is 30.5 and 14.0.

Where “and” joins values, the source holds several entries; their conditions need not be identical. Equal entries are not always repeated. Some values come without a unit; they compare only within their column. Where a SMILES comes first, the peptide text is derived from it. [ ]: non-standard residue; d: D form. Hyp = O=C(O)[C@@H]1C[C@@H](O)CN1
